The list does not hold the whole screen: it is rich in T/C values a quarter to a half above the control, in often repeated tests (any T/C) and in doses without a T/C. Other doses and runs of a compound stand elsewhere. T/C gives the treated animals as a percentage of the vehicle group. Some entries give survivors of the animals treated and no T/C: the source holds a T/C of zero for them, seemingly a mark for toxic or unscored doses. Some doses without a T/C left all or most animals alive at the check, yet need not have been tolerated: the source hardly ever lists a survival T/C far under the control, and the zero likely stands for such cases as well. Counts of survivors are from the toxicity check (mostly the fifth day) where no day follows; animals may have died later. Schedules are NCI's codes, taken here to give the interval after Q, in days (D) or hours (H), and the number of doses after X. Some doses were run more than once; the results are listed from low to high. Marks such as (2×) stand for listed records that agree. For survival time, the PubChem record calls one and a half times the control and up active, and a quarter to a half above the control has no call in these data; cut-offs in other NCI protocols can differ. Some T/C values are followed by the survivors on the day toxicity was checked, most often the fifth; where none is given, no animal had died by that day.
Tested on: AKR/Lw mice, AKR lymphoma ip, median survival T/C
Assay: NCI In Vivo Anticancer Drug Screen. Data for tumor model Lymphoma AKR (Transplanted) (intraperitoneal) in AKR/Lw mice
Conditions: T/C endpoint: median survival time, vehicle: saline, higher T/C = longer survival
Protocol: The antitumor activity of compounds was measured in mice bearing transplantable tumors. Survival or tumor size were measured and the results are expressed as the measurement made in the treated group (T) divided by the measurement made in the vehicle treated control group (C). The tumor model used in this assay is Lymphoma AKR (Transplanted) (intraperitoneal) in AKR/Lw mice

[1] = dose: 75.0 mg/kg/injection, schedule: Q01DX009 (ip)
[2] = dose: 300.0 mg/kg/injection, schedule: Q01DX001 (ip)
[3] = dose: 400.0 mg/kg/injection, schedule: Q01DX001 (ip)

O=P1(N(CCCl)CCCl)NCCCO1 (stereo not drawn)
T/C [1]: 115 % of control | survivor count [1]: 7 of 10, 8 of 10, 10 of 10 (2×) | T/C (dose: 100.0 mg/kg/injection, schedule: Q01DX001 (ip), evaluated on day 5): 172 and 211 % of control | T/C (dose: 100.0 mg/kg/injection, schedule: Q01DX001 (ip), evaluated on day 7): 299 % of control | T/C (dose: 100.0 mg/kg/injection, schedule: Q01DX001 (ip), evaluated on day 9): 145 % of control | T/C (dose: 100.0 mg/kg/injection, schedule: Q01DX001 (ip), evaluated on day 11): 135 % of control | T/C (dose: 100.0 mg/kg/injection, schedule: Q01DX001 (ip), evaluated on day 13): 147 % of control | T/C (dose: 100.0 mg/kg/injection, schedule: Q01DX001 (ip), evaluated on day 45): 150, 166, 177, 182, 186 % of control | T/C (dose: 100.0 mg/kg/injection, schedule: Q01DX001 (ip), evaluated on day 60): 113 [9 of 10 alive], 123, 135, 137 [9 of 10 alive], 139, 140, 147, 165, 170, 172, 177, 181, 191, 205, 208, 211, 222, 236 % of control | survivor count (dose: 100.0 mg/kg/injection, schedule: Q01DX001 (ip)): 10 of 10 | survivor count (dose: 100.0 mg/kg/injection, schedule: Q01DX009 (ip)): 10 of 10 | T/C (dose: 100.0 mg/kg/injection, schedule: Q04DX003 (ip), evaluated on day 45): 168 % of control [9 of 10 alive] | T/C (dose: 100.0 mg/kg/injection, schedule: Q04DX003 (ip), evaluated on day 60): 86, 91, 102, 107, 165 % of control | survivor count (dose: 100.0 mg/kg/injection, schedule: Q04DX003 (ip)): 10 of 10 | T/C (dose: 100.0 mg/kg/injection, schedule: Q07DX003 (ip)): 139, 140, 153, 218 (2×), 221 % of control | T/C (dose: 125.0 mg/kg/injection, schedule: Q04DX003 (ip), evaluated on day 45): 135, 161, 225, 236 % of control | T/C (dose: 125.0 mg/kg/injection, schedule: Q04DX003 (ip), evaluated on day 60): 188 % of control | T/C (dose: 150.0 mg/kg/injection, schedule: Q01DX001 (ip), evaluated on day 5): 144 and 212 % of control | T/C (dose: 150.0 mg/kg/injection, schedule: Q01DX001 (ip), evaluated on day 7): 301 % of control | T/C (dose: 150.0 mg/kg/injection, schedule: Q01DX001 (ip), evaluated on day 9): 251 % of control | T/C (dose: 150.0 mg/kg/injection, schedule: Q01DX001 (ip), evaluated on day 11): 143 % of control | T/C (dose: 150.0 mg/kg/injection, schedule: Q01DX001 (ip), evaluated on day 45): 168 % of control | T/C (dose: 150.0 mg/kg/injection, schedule: Q01DX001 (ip), evaluated on day 60): 125, 130 [8 of 10 alive], 144, 168 [8 of 10 alive], 197, 212 % of control | survivor count (dose: 150.0 mg/kg/injection, schedule: Q01DX001 (ip)): 10 of 10 | survivor count (dose: 150.0 mg/kg/injection, schedule: Q04DX003 (ip)): 8 of 10 | T/C (dose: 200.0 mg/kg/injection, schedule: Q01DX001 (ip), evaluated on day 5): 195 % of control | T/C (dose: 200.0 mg/kg/injection, schedule: Q01DX001 (ip), evaluated on day 7): 301 % of control | T/C (dose: 200.0 mg/kg/injection, schedule: Q01DX001 (ip), evaluated on day 9): 300 % of control | T/C (dose: 200.0 mg/kg/injection, schedule: Q01DX001 (ip), evaluated on day 11): 210 % of control | T/C (dose: 200.0 mg/kg/injection, schedule: Q01DX001 (ip), evaluated on day 13): 195 % of control | T/C (dose: 200.0 mg/kg/injection, schedule: Q01DX001 (ip), evaluated on day 45): 150 [9 of 10 alive], 166, 202 [8 of 10 alive], 264 % of control | T/C (dose: 200.0 mg/kg/injection, schedule: Q01DX001 (ip), evaluated on day 60): 104, 125, 143 [9 of 10 alive], 152, 154, 164, 180, 184, 195, 214, 222, 231 % of control | survivor count (dose: 200.0 mg/kg/injection, schedule: Q01DX001 (ip)): 8 of 10, 9 of 10, 10 of 10 | survivor count (dose: 200.0 mg/kg/injection, schedule: Q04DX003 (ip)): 6 of 10, 8 of 10, 9 of 10, 10 of 10 | survivor count (dose: 200.0 mg/kg/injection, schedule: Q07DX003 (ip)): 10 of 10 | T/C (dose: 200.0 mg/kg/injection, schedule: Q14DX003 (ip)): 127 % of control | T/C (dose: 250.0 mg/kg/injection, schedule: Q04DX003 (ip), evaluated on day 45): 114 % of control | T/C (dose: 250.0 mg/kg/injection, schedule: Q04DX003 (ip), evaluated on day 60): 91 % of control | survivor count (dose: 250.0 mg/kg/injection, schedule: Q04DX003 (ip)): 8 of 10 and 10 of 10 | T/C [2]: 102, 145, 145 [9 of 10 alive], 260 % of control | survivor count [2]: 9 of 10 | survivor count (dose: 300.0 mg/kg/injection, schedule: Q04DX003 (ip)): 9 of 10 and 10 of 10 | T/C [3]: 211 [9 of 10 alive] and 247 % of control [9 of 10 alive] | survivor count [3]: 8 of 10 | survivor count (dose: 400.0 mg/kg/injection, schedule: Q01DX009 (ip)): 4 of 10 | survivor count (dose: 500.0 mg/kg/injection, schedule: Q01DX001 (ip)): 6 of 10 | survivor count (dose: 600.0 mg/kg/injection, schedule: Q01DX001 (ip)): 2 of 10 | survivor count (dose: 800.0 mg/kg/injection, schedule: Q01DX001 (ip)): 2 of 10

Reference: PubChem BioAssay AID190 (DTP/NCI, 2004)
